The results are deposited in PubChem (AID602201; NCATS, 2012).

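Agonist-bound vitamin D receptor ligand-binding domain with a coregulator peptide; Texas Red fluorescence polarization tracks loss of the receptor–coactivator contact after 2 hours at room temperature.
Five-point series from about 0.09 to 57 µM.
Potency is the fitted concentration giving half of the maximal inhibition; a lower value means a stronger inhibitor.
Calls follow a score built from curve class and fitted potency, where 0 is inactive, 1–39 inconclusive and 40–100 active; every row here is inconclusive, across full, partial and single-point curves.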

Values are in nM.
All entries here are filed as inconclusive.
Only part of the assay is shown, chiefly results filed as inconclusive.
A potency from a partial, single-point or poor curve is only a rough figure.
Some entries filed as inconclusive have a full curve.
Activity scores are not listed here.

For COc1ccccc1-c1cc(C(F)(F)F)nc(S(=O)(=O)CCCC(=O)Nc2ccc(F)cc2F)n1 [agonist-bound VDR ligand-binding domain] the result was Potency 17782 nM (inhibitor, partial curve).
For Nc1ccc(N2CCCC2)c(S(=O)(=O)Nc2cccc(C(F)(F)F)c2)c1 [agonist-bound VDR ligand-binding domain] the result was Potency 4467 nM (inhibitor, single point).
For O=[N+]([O-])c1c(NCCCO)cc(Sc2nc3ccccc3s2)c2nonc12 [agonist-bound VDR ligand-binding domain] the result was Potency 7080 nM (inhibitor, single point).
For Clc1ccc(C[n+]2csc3ccccc32)cc1 [agonist-bound VDR ligand-binding domain] the result was Potency 3548 nM (inhibitor, full curve, poor fit).
For CCOc1cc(/C=C2/C(=O)ON=C2C)ccc1OCc1ccc(F)cc1 [agonist-bound VDR ligand-binding domain] the result was Potency 1412 nM (inhibitor, full curve, poor fit).
For CSc1nnc(NC(=O)c2nc(S(=O)(=O)Cc3cccc(C)c3)ncc2Cl)s1 [agonist-bound VDR ligand-binding domain] the result was Potency 2818 nM (inhibitor, partial curve).
For N#CC1=C(N)C(C#N)(C#N)[C@H](c2cccnc2)[C@H]2CN(C(=O)OCc3ccccc3)CC=C12 [agonist-bound VDR ligand-binding domain] the result was Potency 3162 nM (inhibitor, full curve, poor fit).
For O=C(/C=C/c1ccc([N+](=O)[O-])cc1)c1cccnc1 [agonist-bound VDR ligand-binding domain] the result was Potency 2818 nM (inhibitor, full curve).
For O=C(Nc1cc(S(=O)(=O)N2CCOCC2)ccc1N1CCCCC1)c1ccccc1Br [agonist-bound VDR ligand-binding domain] the result was Potency 3548 nM (inhibitor, full curve).
For Cc1ccc(C2=NN=C(NC(=O)CSc3nncn3C)SC2)cc1 [agonist-bound VDR ligand-binding domain] the result was Potency 707.9 nM (inhibitor, full curve).
For O=S(=O)(Nc1c(S(=O)(=O)c2ccccc2)c2nc3ccccc3nc2n1C1CCCCC1)c1ccccc1 [agonist-bound VDR ligand-binding domain] the result was Potency 707.9 nM (inhibitor, full curve, poor fit).
For CC1=NN(c2ccccc2)C(=O)/C1=C\C=C\c1ccccc1 [agonist-bound VDR ligand-binding domain] the result was Potency 3981 nM (inhibitor, full curve, poor fit).
For CS(=O)(=O)c1ncc(Cl)c(C(=O)Nc2ccc3ccccc3c2)n1 [agonist-bound VDR ligand-binding domain] the result was Potency 3162 nM (inhibitor, partial curve, poor fit).

Some entries from above, unchanged:

O=C(/C=C/c1ccc([N+](=O)[O-])cc1)c1cccnc1 [agonist-bound VDR ligand-binding domain] gave Potency 2818 nM (inhibitor, full curve).
O=S(=O)(Nc1c(S(=O)(=O)c2ccccc2)c2nc3ccccc3nc2n1C1CCCCC1)c1ccccc1 [agonist-bound VDR ligand-binding domain] gave Potency 707.9 nM (inhibitor, full curve, poor fit).